Experimental data: paper PMC9206684
Results are given in words; binding and its absence hold for the method and conditions named. In cells and extracts the contact can be indirect. Some binding calls cover weakened binding; strength is not graded here. Sequences can lack the tags named with a protein.

Molecular target: HA-IGF2BP2 / Myc-IGF2BP2 (human), Q9Y6M1
Experiment: co-IP; HA-IGF2BP2 and Myc-IGF2BP2 coexpressed in HEK293T cells, with or without Ct-OATP1B3
Details: remark: other sources report otherwise

B1: HA-IGF2BP2 / Myc-IGF2BP2, Q9Y6M1 1-599 (protein)
chain: MMNKLYIGNLSPAVTADDLRQLFGDRKLPLAGQVLLKSGYAFVDYPDQNWAIRAIETLSGKVELHGKIMEVDYSVSKKLRSRKIQIRNIPPHLQWEVLDGLLAQYGTVENVEQVNTDTETAVVNVTYATREEAKIAMEKLSGHQFENYSFKISYIPDEEVSSPSPPQRAQRGDHSSREQGHAPGGTSQARQIDFPLRILVPTQFVGAIIGKEGLTIKNITKQTQSRVDIHRKENSGAAEKPVTIHATPEGTSEACRMILEIMQKEADETKLAEEIPLKILAHNGLVGRLIGKEGRNLKKIEHETGTKITISSLQDLSIYNPERTITVKGTVEACASAEIEIMKKLREAFENDMLAVNQQANLIPGLNLSALGIFSTGLSVLSPPAGPRGAPPAAPYHPFTTHSGYFSSLYPHHQFGPFPHHHSYPEQEIVNLFIPTQAVGAIIGKKGAHIKQLARFAGASIKIAPAEGPDVSERMVIITGPPEAQFKAQGRIFGKLKEENFFNPKEEVKLEAHIRVPSSTAGRVIGKGGKTVNELQNLTSAEVIVPRDQTPDENEEVIVRIIGHFFASQTAQRKIREIVQQVKQQEQKYPQGVASQRSK
In the case of B1, the binding is reported as “binds”.
